These are yes or no findings as the source states them, for the method shown. Binding seen in cells or lysates may run through a third protein. These calls come from enrichment with a bait or labelling near it, and not all partners need be listed.
Key:
[1] = target: T1, PKA-R2 protein trap (CPTI-001580) (Drosophila melanogaster (endogenous in embryos)) (UniProt P81900); assay: affinity purification with mass spectrometry; parallel one-step affinity purifications of the trapped protein from Drosophila embryonic extracts by the StrepTagII and either the 3×FLAG tag or YFP; co-purifying proteins identified by mass spectrometry; each pull-down performed at least twice
T1 sequence: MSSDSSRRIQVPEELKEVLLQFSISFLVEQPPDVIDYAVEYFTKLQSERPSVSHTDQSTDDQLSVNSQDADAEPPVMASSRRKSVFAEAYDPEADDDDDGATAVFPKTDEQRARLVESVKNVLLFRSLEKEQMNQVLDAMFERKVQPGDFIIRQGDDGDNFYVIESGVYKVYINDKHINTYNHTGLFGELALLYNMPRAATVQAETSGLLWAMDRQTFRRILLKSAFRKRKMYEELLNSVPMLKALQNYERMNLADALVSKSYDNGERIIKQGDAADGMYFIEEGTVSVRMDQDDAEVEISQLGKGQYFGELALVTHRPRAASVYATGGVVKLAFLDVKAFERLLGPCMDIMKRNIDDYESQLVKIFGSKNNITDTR

[2] = target: T2, SmD3 protein trap (CPTI-002164) (Drosophila melanogaster (endogenous in embryos)) (UniProt O44437); assay: as above
T2 sequence: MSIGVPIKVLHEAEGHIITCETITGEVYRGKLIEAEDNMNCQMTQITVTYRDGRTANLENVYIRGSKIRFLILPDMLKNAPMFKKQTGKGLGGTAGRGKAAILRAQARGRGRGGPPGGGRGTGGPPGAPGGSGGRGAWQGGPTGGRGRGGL

Substance | binding [1] | binding [2]
PKA-C1 (from UniProt P12370 1-353) | binds | 
CG32152 |  | binds
